Data taken from the supplement of paper PMC7877785.
± gives the uncertainty stated by the source. The uncertainty is large for many entries.

Assay: self-splicing fitness, log relative to wild type (ln ratio); higher = more splicing; Tetrahymena group I intron in knt gene, E. coli kanamycin selection, DiMSum; sequences stand for … in CUCUCU…GGAGGGAAAAGUUAUCAGGCAUGCACCUGGUAGCUAGUCUUUAAACCAAUAGAUUGCAUCGGUUUAAAAGGCAAGACCGUCAAAUUGCGGGAAAGGGGUCAACAGCCGUUCAGUACCAAGUCUCAGGGGAAACUUUGAGAUGGCCUUGCAAAGGGUAUGGUAAUAAGCUGACGGACAUGGUCCUAACCACGCAGCCAAGUCCUAAGUCAACAGAUCUUCUGUUGAUAUGGAUGCAGUUCACAGACUAAAUGUCGGUCGGGGAAGAUGUAUUCUUCUCAUAAGAUAUAGUCGGACCUCUCCUUAAUGGGAGCUAGCGGAUGAAGUGAUGCAACACUGGAGCCGCUGGGAACUAAUUUGUAUGCGAAAGUAUAUUGAUUAGUUUUGGAGUACUCGUGGUCG
Summary of the method: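 Colonies from six replicate transformations of E. coli BL21(DE3) were pooled and amplicon-sequenced on an Illumina HiSeq 2500. The library placed an intron with all eight P1ex-region nucleotides randomised inside the knt kanamycin-resistance gene on pET-22b(+), and cells grew overnight at 37°C or 30°C on LB agar with or without 25 μg/mL kanamycin (plus 100 μg/mL carbenicillin, 50 μM IPTG, 0.2% rhamnose). Fitness is the DiMSum error-weighted combination of wild-type-normalised replicate fold changes, kanamycin versus none.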

Sequence | self-splicing fitness (ln) (30 °C) | self-splicing fitness (ln) (37 °C)
GGCGAGCAAUAUUACGAAGA | -0.86 ± 0.63 | 
CGAGAGCAAUAUUACGGGCC | -2.09 ± 1.4 | -2.13 ± 0.56
CGAGAGCAAUAUUACGGGCU | -3.67 ± 0.22 | -2.18 ± 0.28
CAGGAGCAAUAUUACGCUAC |  | -1.79 ± 0.82
AGUGAGCAAUAUUACGCCCC | -1.96 ± 0.87 | 
GUCUAGCAAUAUUACGAGCC | -1.32 ± 1.4 | -1.15 ± 0.67
ACAUAGCAAUAUUACGUUAC |  | -2.15 ± 0.72
UUGCAGCAAUAUUACGGUAA | -0.988 ± 0.099 | -0.0317 ± 0.093
AGUAAGCAAUAUUACGAAUU |  | -2.49 ± 0.55
GCAUAGCAAUAUUACGCAGC | -2.94 ± 0.54 | 
AAUCAGCAAUAUUACGUGCA | -0.181 ± 0.067 | 0.221 ± 0.084
GGAAAGCAAUAUUACGAUCC |  | -1.45 ± 0.59
UGCGAGCAAUAUUACGGCGC |  | -2.21 ± 0.79
AAGUAGCAAUAUUACGAGGC |  | -3.27 ± 0.53
UGAAAGCAAUAUUACGAGUU | -3.31 ± 0.15 | -0.915 ± 0.095
CAUUAGCAAUAUUACGAGUC | -5.39 ± 1 | 
CUGUAGCAAUAUUACGGGUA |  | -3.44 ± 0.73
GGUUAGCAAUAUUACGCGCU | -2.36 ± 0.5 | -0.947 ± 0.71
GCAGAGCAAUAUUACGGCGG | -3.77 ± 0.59 | -1.16 ± 0.63
UUGAAGCAAUAUUACGAAGU | -3.34 ± 0.19 | -1.69 ± 0.21
GCCUAGCAAUAUUACGAAUA |  | -1.84 ± 0.5
CGCUAGCAAUAUUACGCCGC |  | -1.96 ± 0.5

Sequence | self-splicing fitness (ln) (30 °C) | self-splicing fitness (ln) (37 °C)
CGGGAGCAAUAUUACGCUAC | -2.87 ± 1.1 | -1.77 ± 0.69
GUCGAGCAAUAUUACGCGAA | -1.39 ± 0.17 | 0.0361 ± 0.17
AGGGAGCAAUAUUACGUCAG | -4.08 ± 0.51 | 
CUGGAGCAAUAUUACGCUGG | -3.91 ± 0.52 | 
GUCGAGCAAUAUUACGAGAC | -0.29 ± 0.8 | 
CUCAAGCAAUAUUACGGCCA | -3.7 ± 1 | -2.96 ± 0.62
UAAGAGCAAUAUUACGGUCC | -3.83 ± 1 | -2.87 ± 0.74
ACUGAGCAAUAUUACGUAAA | -3.02 ± 0.53 | 
GGGGAGCAAUAUUACGCAGA | -3.66 ± 0.52 | 
UGGUAGCAAUAUUACGCACG |  | 0.218 ± 0.51
AUAGAGCAAUAUUACGCCGC | -2.59 ± 0.55 | 
CUGAAGCAAUAUUACGCUUA | -3.82 ± 0.3 | -2.13 ± 0.23
UCAUAGCAAUAUUACGACAC | -4.1 ± 0.59 | 
CGAGAGCAAUAUUACGUCUU | -3.66 ± 0.43 | -1.39 ± 0.22
UUAGAGCAAUAUUACGAGAC | -2.5 ± 0.73 | -2.67 ± 1.1
CGAGAGCAAUAUUACGGUCU | -0.974 ± 0.93 | -0.909 ± 0.55
AUUCAGCAAUAUUACGUCAU | -0.863 ± 0.059 | 0.0811 ± 0.071
UCGUAGCAAUAUUACGAUAC | -2.82 ± 0.56 | -3.23 ± 0.52
CCCGAGCAAUAUUACGCCAG |  | -3.49 ± 0.59
CUAGAGCAAUAUUACGAACC | -1.8 ± 0.47 | -2.59 ± 0.74
AGAAAGCAAUAUUACGUCUC |  | -0.778 ± 1.4
GCGCAGCAAUAUUACGUCAG | -2.03 ± 0.14 | -2.23 ± 0.18

Sequence | self-splicing fitness (ln) (30 °C) | self-splicing fitness (ln) (37 °C)
UUCGAGCAAUAUUACGUUCA | -1.99 ± 0.13 | -1.15 ± 0.13
GCCGAGCAAUAUUACGAGGC | -3.23 ± 0.35 | -2.3 ± 0.37
CUCCAGCAAUAUUACGCCUC | -2.33 ± 0.64 | -1.83 ± 0.58
GGGGAGCAAUAUUACGGUAC | -3.33 ± 0.61 | 
AAGUAGCAAUAUUACGCUAG | -1.57 ± 0.17 | -1.04 ± 0.2
GCAUAGCAAUAUUACGUUCC | -2.21 ± 1.1 | 
ACUAAGCAAUAUUACGCCAU | -3.48 ± 0.61 | 
GGACAGCAAUAUUACGCGCG | 0.181 ± 0.094 | -0.742 ± 0.11
CAGGAGCAAUAUUACGUGAA | -3.52 ± 0.38 | -3.2 ± 0.43
UGGGAGCAAUAUUACGGAAU | -4.05 ± 0.52 | 
GGAGAGCAAUAUUACGUCAC | -1.32 ± 1.4 | -1.78 ± 1.2
CAGAAGCAAUAUUACGCACA | -1.56 ± 0.077 | -0.438 ± 0.087
CCCGAGCAAUAUUACGGCGU | -2.83 ± 0.13 | -1.71 ± 0.13
CCGAAGCAAUAUUACGACCU | -3.73 ± 0.32 | -2.3 ± 0.36
GUUGAGCAAUAUUACGAAAC |  | -1.98 ± 0.78
GUUCAGCAAUAUUACGGGCU | -3.26 ± 0.74 | 
CGUGAGCAAUAUUACGCAGC | -4.77 ± 0.73 | 
AUGGAGCAAUAUUACGCGAG |  | -0.466 ± 0.56
AAUUAGCAAUAUUACGCUUA | -0.993 ± 0.12 | 0.247 ± 0.14
UUCAAGCAAUAUUACGCGUU | -2.62 ± 0.12 | -0.189 ± 0.09

3 entries drawn at random from those above:
Sequence | self-splicing fitness (ln) (30 °C) | self-splicing fitness (ln) (37 °C)
AGUGAGCAAUAUUACGCCCC | -1.96 ± 0.87 | 
AUAGAGCAAUAUUACGCCGC | -2.59 ± 0.55 | 
ACAUAGCAAUAUUACGUUAC |  | -2.15 ± 0.72
